# Reference: US8507527B2, “Method for stabilizing anti-dementia drug” (EISAI R & D Management Co., Ltd., priority 2004, dated 2013)
# What was measured:
# physchem = settings: 25 °C
# [1] = pH of aqueous solutions or suspensions of additives, polymers and donepezil hydrochloride; format: physicochemical
compound,measurement,setting,value
"COc1cc2c(cc1OC)C(=O)C(CC1CCN(Cc3ccccc3)CC1)C2.Cl (racemic) [donepezil hydrochloride, (±)-2-[(1-benzylpiperidin-4-yl)methyl]-5,6-dimethoxyindan-1-one monohydrochloride]",solubility,"physchem; pH 3, aqueous buffer",11 to 16 mg/mL
same,solubility,"physchem; pH 6, aqueous buffer",11 to 16 mg/mL
same,solubility,"physchem; pH 8, aqueous buffer",≤ 0.1 mg/mL
same,solubility,physchem; simulated gastric fluid,11 to 16 mg/mL
same,pH,[1]; 2% aqueous solution,5.0
same,pH,[1]; 5% aqueous solution,4.8
